# Measured values reported in PubChem BioAssay AID1671190 (National Center for Advancing Translational Sciences (NCATS), 2021).
# Protein sequences, listed by entry. Tags and fused reporters are not part of them. Lines headed by an entry give the natural chain unless they say otherwise; changes in a name come on top.
# UniProt P18054: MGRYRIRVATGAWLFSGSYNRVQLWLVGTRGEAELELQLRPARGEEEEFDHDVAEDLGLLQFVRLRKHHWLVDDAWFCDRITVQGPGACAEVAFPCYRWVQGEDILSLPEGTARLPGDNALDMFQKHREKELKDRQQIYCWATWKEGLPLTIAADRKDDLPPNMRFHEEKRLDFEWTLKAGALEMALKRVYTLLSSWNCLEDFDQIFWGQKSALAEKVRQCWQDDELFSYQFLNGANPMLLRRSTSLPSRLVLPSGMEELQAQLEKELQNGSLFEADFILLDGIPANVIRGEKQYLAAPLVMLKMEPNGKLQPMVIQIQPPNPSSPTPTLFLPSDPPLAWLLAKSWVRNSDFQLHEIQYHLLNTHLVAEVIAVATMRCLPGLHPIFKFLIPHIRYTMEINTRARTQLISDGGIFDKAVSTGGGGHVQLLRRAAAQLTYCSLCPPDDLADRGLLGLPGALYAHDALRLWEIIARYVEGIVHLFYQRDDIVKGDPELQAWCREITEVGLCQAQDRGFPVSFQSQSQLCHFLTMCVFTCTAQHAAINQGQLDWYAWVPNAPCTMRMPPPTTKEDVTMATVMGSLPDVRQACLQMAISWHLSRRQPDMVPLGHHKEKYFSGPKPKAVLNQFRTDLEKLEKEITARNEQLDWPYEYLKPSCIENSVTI
# In all, about 580,000 compounds went through this assay and about 6,100 (1.1%) were called active. Inconclusive means that the source gave no clear call. Such entries were picked first, then a sample of the others. Calls come from the whole dose curve; as a rule, active = well fitted inhibition curve with a large enough effect; inconclusive = small, poorly fitted or top-dose-only effect, or another doubt; inactive = no such curve, though single readings can be large or run the other way. Where the call is inconclusive, the potency comes from a doubtful curve fit.
# Target: Polyunsaturated fatty acid lipoxygenase ALOX12 (Homo sapiens) (UniProt P18054)
# Assay: Primary qHTS assay for inhibitors of human arachidonate 12S-lipoxygenase (ALOX12): Round 2
# Settings: purified 12hLO, xylenol orange hydroperoxide absorbance; activity change, negative = inhibition: at 108 µM (top of the series) unless noted
# Summary of the method: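 Hydroperoxide product was detected by ferrous iron/xylenol orange as the 573 to 405 nm absorbance ratio. Arachidonic acid at 40 uM (final) was turned over for 30 min at room temperature by 150 nM human 12hLO, pH 7.0 Hepes buffer, after 15 min compound preincubation.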
# % is set by controls: 0 for no effect and ±100 for the full control effect; potency is the fitted concentration of half-maximal effect.
Structure (SMILES),Potency,"activity change, negative = inhibition"
O=C(Cn1cc(SCc2ccc(C(F)(F)F)cc2)c2ccccc21)N1CCCC1,"inconclusive: 50.1 µM [inhibitor, partial curve, poor fit]",–
O=C(O)CSc1nnc(-c2ccc(Cl)cc2)n1-c1ccccc1,–,inconclusive: -47.3% [inhibitor]
CN(C)CCCNc1nc2cc(-c3cnn(C)c3)sc2c(=O)n1C,"inconclusive: 56.2 µM [inhibitor, partial curve, poor fit]",–
NS(=O)(=O)C1CCS(=O)(=O)C1 (configuration not stated),–,inactive: 32.5%
COc1ccccc1CC(=O)N1CCCc2ncc(C(=O)Nc3ccc4[nH]ccc4c3)cc21,–,inactive: -3.46% [at 176 µM]
CCOc1ccc(CC(=O)NNC(=S)Nc2ccccc2)cc1Br,"inconclusive: 112 µM [inhibitor, single point]",–
COc1ccc(CN2C=C(C(=O)OCc3noc(CC4CCCCC4)n3)C(C)=NS2(=O)=O)cc1,"inconclusive: 20 µM [inhibitor, full curve, poor fit]",–
CC(=O)Nc1sc2c(c1C(c1ccc(Cl)cc1)N1CCOCC1)CCCC2 (configuration not stated),"inconclusive: 126 µM [inhibitor, single point]",–
O=C(c1ccc(F)c(F)c1)N1CCC2(CC1)N=C(c1ccc(Cl)cc1)NO2,–,inactive: 2.62%
CCN(CC)S(=O)(=O)c1cccc(C(=O)N/N=C/c2ccc(O)c(O)c2O)c1,"inconclusive: 20 µM [inhibitor, partial curve, poor fit]",–
COc1cccc(CN2CCc3nc(N4CCN(c5ncccn5)CC4)ncc3C2)c1,"inconclusive: 39.8 µM [inhibitor, partial curve, poor fit]",–
CCCOc1cc(OCCC)c2c(=O)cc(-c3ccccc3)oc2c1,"inconclusive: 31.6 µM [inhibitor, single point]",–
Cc1cccc(NC(=S)NN2CCOCC2)c1C,"inconclusive: 15.8 µM [inhibitor, full curve, poor fit]",–
COc1ccc(-c2ccc3ncc(Nc4ccc(CCO)cc4)n3n2)cn1,–,inactive: 18.7% [at 176 µM]
Cc1cccc(Cn2c(SCCN3CCOCC3)nc3c2c(=O)[nH]c(=O)n3C)c1,"inconclusive: 20 µM [inhibitor, partial curve, poor fit]",–
COc1ccc(NC(=O)COC(=O)c2nn(C)c(=O)c3ccccc23)cc1,–,inactive: 5.15%
Cc1ccc(Nc2nc(C(=O)OCC(=O)c3ccc(Cl)cc3)cs2)cc1C,–,inactive: -19.4%
Cc1nnc(SCC(=O)OC2CC(C)CCC2C(C)C)[nH]c1=O (configuration not stated),"inconclusive: 2 µM [inhibitor, full curve, poor fit]",–
COc1cccc(NC(=O)C(c2ccc(Cl)cc2)C(C)C)c1 (configuration not stated),"inconclusive: 44.7 µM [inhibitor, partial curve, poor fit]",–
COc1ccc2c(c1)c(C(=O)N1CCN(C)CC1)c(C)n2-c1ccccc1,"inconclusive: 31.6 µM [inhibitor, partial curve, poor fit]",–
CC(C)(C)c1ccccc1NC(=O)NC1CCN(Cc2c(F)cccc2Cl)CC1,"inconclusive: 112 µM [inhibitor, single point]",–

# 3 compounds from above, sorted by SMILES length, high to low:
Structure (SMILES),Potency,"activity change, negative = inhibition"
CC(C)(C)c1ccccc1NC(=O)NC1CCN(Cc2c(F)cccc2Cl)CC1,"inconclusive: 112 µM [inhibitor, single point]",–
COc1ccc(-c2ccc3ncc(Nc4ccc(CCO)cc4)n3n2)cn1,–,inactive: 18.7% [at 176 µM]
CCCOc1cc(OCCC)c2c(=O)cc(-c3ccccc3)oc2c1,"inconclusive: 31.6 µM [inhibitor, single point]",–

# Additional records

Structure (SMILES),Potency,"activity change, negative = inhibition"
Cc1cc(C)n2c(-c3ccccc3Cl)nnc2n1,–,inactive: 1.7%
O=C1/C(=C/c2ccc(Br)cc2)C(c2ccccc2)Oc2ccccc21 (configuration not stated),–,inactive: 0.142%
CC1(C)Cc2c(sc3c2c(=O)n(CCCO)c(=O)n3Cc2ccccc2)CO1,"inconclusive: 126 µM [inhibitor, partial curve, poor fit]",–
CN(CC(=O)NCCc1noc(-c2cccnc2)n1)S(=O)(=O)c1cccs1,"inconclusive: 63.1 µM [inhibitor, partial curve, poor fit]",–
O=C(c1ccncc1)N1CCCC(CCc2ccc(F)cc2)C1 (configuration not stated),–,inactive: 32.7%
CN(CCOc1cccc(Cl)c1)Cc1cc(=O)oc2cc(O)ccc12,"inconclusive: 89.1 µM [inhibitor, partial curve, poor fit]",–
Cc1sc2nc(CSC(C)C(=O)Nc3cc(S(C)(=O)=O)ccc3Cl)[nH]c(=O)c2c1C (configuration not stated),"inconclusive: 56.2 µM [inhibitor, partial curve, poor fit]",–
C=C(c1cccc2ccccc12)P(=O)(O)O,active: 12.6 µM,–
CCOC(=O)[C@H]1[C@H]2COc3ccc(C)cc3[C@@H]2N2C(=O)[C@@H](C)NC(=O)[C@@]12C,"inconclusive: 126 µM [inhibitor, single point]",–
O=C(O)c1ccc(/C=N/N2CCN(Cc3cccc4ccccc34)CC2)cc1,–,inactive: -0.838%
COc1ccc(NC(=O)CSc2oc(-c3ccco3)nc2S(=O)(=O)c2ccc(Br)cc2)c(OC)c1,"inconclusive: 44.7 µM [inhibitor, partial curve, poor fit]",–
O=c1c2ccc(Cl)cc2[nH]c(=S)n1CCCN1CCOCC1,"inconclusive: 5.01 µM [inhibitor, full curve, poor fit]",–
COCCn1c(=O)c(-c2ccc(F)cc2)nc2cncnc21,"inconclusive: 25.1 µM [inhibitor, single point]",–
COc1ccccc1NC(=O)COC(=O)c1cc(C)nc2ccccc12,"inconclusive: 70.8 µM [inhibitor, partial curve, poor fit]",–
O=C(NCCCn1ccnc1)/C(=C/c1ccco1)NC(=O)c1cccs1,–,inactive: 6.97%
O=C1CC(c2cccc(Cl)c2)Cc2c1cnn2-c1nc2ccccc2[nH]1 (configuration not stated),–,inactive: 0.008%
CN(C(=O)CSc1ccc2c(c1)OCCO2)c1ccccc1,"inconclusive: 126 µM [inhibitor, single point]",–
CC(=O)N1Cc2cc(C(=O)NCC(F)(F)F)nc(-c3cccc(-c4cccnc4)c3)c2[C@H]1CCO,–,inactive: 3.31%
C[C@H]1CN([C@@H](C)CO)C(=O)c2cccc(NC(=O)C3CC3)c2O[C@H]1CN(C)S(=O)(=O)c1cccs1,"inconclusive: 89.1 µM [inhibitor, single point]",–
O=C(C1=C[C@H](c2ccc3c(c2)OCO3)C[C@H](OCCCCO)O1)N1CCN(Cc2ccccc2)CC1,"inconclusive: 22.4 µM [inhibitor, single point]",–
Cc1ccc(CN2CCC(CNC(=O)c3cccc4c3SCCC4=O)CC2)cc1,"inconclusive: 112 µM [inhibitor, partial curve, poor fit]",–
